No constants are given. Whether binding was seen depends on the method and setting. For some of these results: In cells and extracts the contact can be indirect. Some binding calls cover weakened binding; strength is not graded here. For some of these results: Sequences can lack the tags named with a protein. Blank lines part the entries; values can stand above or below the molecule they belong to.
What was measured:
[1] = molecular target: T1, Rho guanine dissociation inhibitor-α (human (endogenous in HUVEC)) (UniProt P52565); assay: proximity ligation; Duolink PLA in HUVEC fixed with 4% PFA and permeabilized with 0.2% NP40; primary antibodies against PDIA1 and RhoGDIα; confocal microscopy
T1 sequence: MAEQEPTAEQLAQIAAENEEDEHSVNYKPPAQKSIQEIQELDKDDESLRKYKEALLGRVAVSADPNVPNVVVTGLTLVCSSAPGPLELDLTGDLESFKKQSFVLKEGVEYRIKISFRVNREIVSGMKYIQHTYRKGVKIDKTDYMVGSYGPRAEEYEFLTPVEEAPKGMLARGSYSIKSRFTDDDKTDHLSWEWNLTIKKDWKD

Amino acid sequences for entries named in this document (tags omitted). Residues count along the entry.
UniProt P07237, residues 18-508: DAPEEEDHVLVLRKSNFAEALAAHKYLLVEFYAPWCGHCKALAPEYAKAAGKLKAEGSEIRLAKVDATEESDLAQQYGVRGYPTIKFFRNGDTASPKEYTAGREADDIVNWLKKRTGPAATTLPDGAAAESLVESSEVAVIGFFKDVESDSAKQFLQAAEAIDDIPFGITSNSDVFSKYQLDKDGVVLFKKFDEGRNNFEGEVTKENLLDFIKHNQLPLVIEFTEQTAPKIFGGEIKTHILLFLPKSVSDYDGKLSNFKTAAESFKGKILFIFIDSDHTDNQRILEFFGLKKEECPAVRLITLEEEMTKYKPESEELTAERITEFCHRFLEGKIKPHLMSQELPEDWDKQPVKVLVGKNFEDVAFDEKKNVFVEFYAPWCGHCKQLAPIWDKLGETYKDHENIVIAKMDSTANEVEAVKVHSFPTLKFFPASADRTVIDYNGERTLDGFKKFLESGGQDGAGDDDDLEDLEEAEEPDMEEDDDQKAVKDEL

[2] = molecular target: T1, Rho guanine dissociation inhibitor-α (human (endogenous in HUVEC)); assay: co-IP; HUVEC lysate (50 mM Tris-HCl pH 7.4, 150 mM NaCl, 1 mM EDTA, 1% Triton X-100, 10 mM MgCl2, 1 μM MG132) incubated overnight at 4 °C with RhoGDIα antibody, then Protein A-coated magnetic beads 4 h at 4 °C; PDIA1 detected by western blot (RL90)
[3] = molecular target: T2, Human RhoGDIα–GST fusion protein (human) (UniProt P52565); assay: pull-down; 200 μg RhoGDIα-GST (oxidized with 20 mM H2O2 or reduced with 20 mM DTT) or GST alone on glutathione sepharose beads, incubated with HUVEC homogenates overnight at 4 °C; washed in lysis buffer; western blot for PDI (RL90) and GST under reduced conditions; only the target purified
T2 sequence: T1 sequence

[4] = molecular target: T3, Human RhoGDIα–GST fusion protein (human), P52565; assay: dimer band on the western blot of the pull-down; RhoGDIα-GST on glutathione sepharose beads, oxidized (20 mM H2O2) or reduced (20 mM DTT), after incubation with HUVEC lysate; anti-GST blot; dimeric form mainly with the oxidized protein; both purified; details: remark: other sources report otherwise
T3 chain: T1 sequence

binding [1]: binds
binding [2]: binds
binding [3]: binds
Molecule: Protein disulfide isomerase PDIA1 (from UniProt P07237 18-508)

binding [4]: binds
B1: Human RhoGDIα–GST fusion protein, P52565 1-204 (protein)
chain: T1 sequence
